Test results from paper PMC10343654 (Molecules, 2023).

Assay: general procedure: Fmoc solid-phase peptide synthesis; 2-chlorotrityl-chloride resin (0.9 mmol/g)
Conditions: whole synthesis, UPLC-UV-MS (Waters AQUITY-H-Class-SQD2, BEH C18)

Row | Substance | final HPLC purity [%]
1 | PEPTIDE1{[Mpa].[bAla].K.R.P.P.G.F.S.P.[dF]}$$$$V2.0 | 100
2 | PEPTIDE1{[Sar].K.R.P.P.G.F.S.P.[dF]}$$$$V2.0 | 99.1
3 | PEPTIDE1{[Mpa].[bAla].R.P.[Hyp].G.[Thi].S.[NChg].[Thi].R}$$$$V2.0 | 100
4 | PEPTIDE1{[Mpa].[bAla].[Orn].R.[Oic].P.G.[aMePhe].S.[D-bNal].I}$$$$V2.0 | 99.8
5 | PEPTIDE1{[ac].[Orn].R.[Oic].P.G.[aMePhe].S.[D-bNal].I}$$$$V2.0 | 99.2
6 | PEPTIDE1{R.P.[Hyp].G.[Thi].S.[NChg].[Thi].R}$$$$V2.0 | 100

Strings that start with PEPTIDE1 are HELM notation: dots part the residues, brackets hold end groups and non-standard residues.
